Test results reported in the supplement of paper PMC4683952.
Where a name gives a salt, the structure may show the parent alone. Hit rate of the full screen: of about 1,200 compounds, about 50 (4%) showed activity. Rule as the data show it: all actives reach 1.3 or more but so do some inactives. The list shows a part of the results.

These molecules were tested on Lgr5 (MarsCy1-Lgr5-EGFP, U2OS) (assay: cell-surface Lgr5 expression (SCi1 fluorescence, background-subtracted) relative to WT DMSO (fold of DMSO control); higher = more Lgr5 at the plasma membrane, active = hit call of the paper). Conditions: U2OS MarsCy1-Lgr5-EGFP stable; treatment time: overnight; 16 µM; library: Johns Hopkins Clinical Compound Library.

cell-surface Lgr5 expression, inactive:
CC(C)(C(=O)O)c1ccc(C(O)CCCN2CCC(C(O)(c3ccccc3)c3ccccc3)CC2)cc1 (stereo unspecified) [Fexofenadine hydrochloride] 0.998
NC(N)=S [Thiourea] 1.2
Cc1c(C)c2c(c(C)c1O)CCC(C)(COc1ccc(CC3SC(=O)NC3=O)cc1)O2 (stereo unspecified) [Troglitazone] 1.09
CCC(=O)Oc1ccc(/C(CC)=C(\CC)c2ccc(OC(=O)CC)cc2)cc1 [Diethylstilbestrol dipropionate] 0.886
C[C@H]1COc2c(C3(N)CC3)c(F)cc3c(=O)c(C(=O)O)cn1c23 [Pazufloxacin] 0.826
[Br-].[Li+] [Lithium bromide] 0.578
COC(=O)Nc1nc2cc(C(=O)c3ccccc3)ccc2[nH]1 [Mebendazole] 0.892
CC(N)C(=O)O (racemic) [Alanine, D, L (DL-alpha-Alanine)] 0.867
CN1C(C)(C)CCCC1(C)C [Pempidine (1,2,2,6,6-pentamethylpiperidine)] 1.3
[Na+].[OH-] [Sodium hydroxide] 0.75
CN(C)/N=N/c1[nH]cnc1C(N)=O [Dacarbazine] 1.09
CC[N+](C)(C)Cc1ccccc1Br [Bretylium tosylate] 0.812
C[N+](C)(C)CCCCCC[N+](C)(C)C [Hexamethonium Chloride] 0.938
O=C(O)c1cccnc1Nc1cccc(C(F)(F)F)c1 [Niflumic acid] 1.19
CCOC(=O)[C@H](CCc1ccccc1)N[C@@H](C)C(=O)N1Cc2ccccc2C[C@H]1C(=O)O [Quinapril] 1.13
[I-].[Rb+] [Rubidium iodide] 1.04
CN1CCc2c(c3ccccc3n2Cc2ccccc2)C1 [Mebhydrolin] 0.967
N=C(N)c1ccc(OCCCCCOc2ccc(C(=N)N)cc2)cc1 [Pentamidine] 1.33
Cn1c(NCCN(CCO)CCCc2ccc([N+](=O)[O-])cc2)cc(=O)n(C)c1=O [Nifekalant] 0.923
OCCOCCN1CCN(C2=Nc3ccccc3Sc3ccccc32)CC1 [Quetiapine fumarate] 0.456
COc1cccc2c1C(=O)c1c(O)c3c(c(O)c1C2=O)C[C@@](O)(C(=O)CO)C[C@@H]3O[C@H]1C[C@H](N)[C@H](O)[C@H](C)O1 [Doxorubicin] 0.634

An excerpt from above in order of molar mass, high to low:
cell-surface Lgr5 expression, inactive:
OCCOCCN1CCN(C2=Nc3ccccc3Sc3ccccc32)CC1 [Quetiapine fumarate] 0.456
CC[N+](C)(C)Cc1ccccc1Br [Bretylium tosylate] 0.812
CC(N)C(=O)O (racemic) [Alanine, D, L (DL-alpha-Alanine)] 0.867
